Record: PubChem BioAssay AID504793 (Drosophila RNAi Screening Center, 2011)

Screen: 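Knock-downs allowing continued mitosis even though DNA is damaged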 (primary screen)
System: Drosophila S2R+ cells
Knock-down reagent: long dsRNA against Drosophila genes, about 0.25 µg dsRNA per well
Timing: 4 days of dsRNA, then 4 hours of drug before read-out
Conditions: doxorubicin 0.5 µM for 4 hours to cause double-strand breaks, in cells also given a low, harmless dose of dsRNA against nbs to sensitise the assay
Read-out: 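Per-well count of mitotic cells stained for phospho-histone H3 after doxorubicin exposure, used as mitotic index; counts are raw and not normalised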
Scale: mitotic cells: higher = more cells in mitosis, weaker G2 arrest
Call rule: 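Genes are called active only when high mitotic counts were reproduced with independent dsRNAs and mitosis was checked for delay without damage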
Meaning of the calls: active = confirmed in follow-up tests; inactive = not confirmed
The screen tested about 23,000 reagents; below is a random part of those that have a named target and a result. Over the whole deposit, 62 (0.27%) were called active. 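Calls come from follow-up tests whose scores are not deposited, so confirmed genes may have low counts here; counts are not normalised per plate.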 The raw values are shown without normalisation. Names joined by + are all predicted targets of the reagent. Reagent sequences are not shown.

no.	gene	amplicon	mitotic cells, replicate 1	mitotic cells, replicate 2	Outcome
1	CG4887	DRSC00670	4		inactive
2	CG4887	DRSC21563	1		inactive
3	CG4887	DRSC25723	3		inactive
4	bsk	DRSC03499	6		inactive
5	sbr	DRSC19770	5		inactive
6	sbr	DRSC20368	21		inactive
7	sbr	DRSC29803	7		inactive
8	CG8051	DRSC20077	8		inactive
9	CG8051	DRSC26855	11		inactive
10	Rpp20 + CG33932	DRSC19467	5		inactive
11	Rpp14b	DRSC15063	17		inactive
12	CG12126	DRSC06103	8		inactive
13	CG9331	DRSC03206	5		inactive
14	CG9331	DRSC28815	3		inactive
15	Fum2	DRSC18345	14		inactive
16	Fum2	DRSC25313	9		inactive
17	CG14957	DRSC08416	7		inactive
18	Slu7	DRSC14729	3		inactive
19	Slu7	DRSC23582	2		inactive
20	dmrt99B	DRSC22977	18		inactive
21	dmrt99B	DRSC25777	5		inactive
22	CG42557 + CG42558	DRSC13963	10		inactive
23	CG42557 + CG42558	DRSC16329	11		inactive
24	RpL21	DRSC03704	4		inactive
25	psh	DRSC19990	11		inactive
26	psh	DRSC28534	5		inactive
27	Sfxn2	DRSC10718	6		inactive
28	CG7573	DRSC10884	5		inactive
29	CG6836	DRSC10722	2		inactive
30	CG6836	DRSC26906	3		inactive
31	CG13050	DRSC09931	3		inactive
32	Taf12	DRSC16879	9		inactive
33	Taf12	DRSC28181	4		inactive
34	CG32024	DRSC21883	6		inactive
35	Hexo1	DRSC08663	2		inactive
36	iotaTry	DRSC07634	6		inactive
37	CG11438	DRSC11660	1		inactive
38	CG6724	DRSC02983	3		inactive
39	Tsp39D	DRSC03099	5		inactive
40	CG3687	DRSC06850	11		inactive
41	CG3687	DRSC29588	4		inactive
42	ck	DRSC03509	4		inactive
43	sn	DRSC18834	13		inactive
44	sn	DRSC28327	2		inactive
45	CG12384	DRSC06145	13		inactive
46	CG12384	DRSC28713	4		inactive
47	Pex6 + Hao	DRSC06097	2		inactive
48	Pex6 + Hao	DRSC06704	9		inactive
49	Itpr	DRSC12354	3		inactive
50	Itpr	DRSC28770			inactive
51	CG2258	DRSC18222	7		inactive
52	CG2258	DRSC28795	3		inactive
53	ghi	DRSC08985	6	7	inactive
54	CG9541	DRSC03257	1		inactive
55	Ugt49B2	DRSC16049	10		inactive
56	Ugt49B2	DRSC24548	11		inactive
57	Gad1	DRSC08661	10		inactive
58	Gad1	DRSC27052	3		inactive
59	CG15115	DRSC06537	8		inactive
60	alphaTub84B	DRSC12622	107		inactive
61	alphaTub84B	DRSC25011	58		inactive
62	e(r)	DRSC18768	6		inactive
63	Npc2a	DRSC00698	6		inactive
64	Phyhd1	DRSC14911	6		inactive
65	Phyhd1	DRSC26408	10		inactive
66	GstE4	DRSC06674	9		inactive
67	GstE4	DRSC24213	6		inactive
68	Poxm	DRSC16793	6		inactive
69	Poxm	DRSC22839	7		inactive
70	Abd-B	DRSC14098	7		inactive
71	Abd-B	DRSC14337	6		inactive
72	Abd-B	DRSC28796	5		inactive
73	l(2)k01209	DRSC06889	5		inactive
74	l(2)k01209	DRSC29673	1		inactive
75	CG4459	DRSC15582	6		inactive

Just “mitotic cells, replicate 1”, for 7 of the entries above:
Taf12 [DRSC16879]: 9
Taf12 [DRSC28181]: 4
CG32024 [DRSC21883]: 6
Hexo1 [DRSC08663]: 2
iotaTry [DRSC07634]: 6
CG11438 [DRSC11660]: 1
CG6724 [DRSC02983]: 3
